Laboratory results from patent US12344599B2, “Prodigiosin analogs and methods of use” (Institute For Cancer Research, priority 2016, dated 2025).

System: p53 target genes in HT29 cells
Assay: RNA-Seq gene profiling with IPA analysis
Type: cell-based, human
Conditions: HT29, 1 μM for 24 hours
Experimental: Having confirmed that PG3-Oc induces apoptosis in multiple p53-expressing mutant cancer cell lines, whether this small molecule restored p53 pathway signaling was investigated in HT29 cells after treatment with 1 μM PG3-Oc for 24 hours. For this purpose, gene profiling was performed by RNA-Seq and bioinformatics analysis, such as IPA (Ingenuity pathway analysis), GSEA (gene set enrichment analysis) and GO (gene ontology) (See details at Methods and Materials). […] Key p53 target gene CDKN1A (p21) that negatively regulate cell cycle and other p53 target genes that regulate apoptosis such as, TNFRSF10B (DR5), BBC3 (PUMA), BIRC5 (Survivin), TP53INP1 (Teap) were identified in canonical p53 pathway analysis. […] To verify that the behavior of regulation of p53 target genes by PG3-Oc is similar to p53 protein, based on published data (Fischer, Oncogene, 2017, 36(28), 3943-3956), genes directly repressed (FIG. 89) and activated (FIG. 90) by the p53 transcription factor were selected. […] This implicates that PG3-Oc is able to restore the p53 pathway.

CCCCCCCCOC(=O)CCc1c(C)[nH]c(/C=C2\N=C(c3ccc[nH]3)C=C2OC)c1C [PG3-Oc, Octyl (Z)-3-(5-((4′-methoxy-1H,5′H-[2,2′-bipyrrol]-5′-ylidene)methyl)-2,4-dimethyl-1H-pyrrol-3-yl)propanoate]
number of down-regulated genes among 284 known p53 target genes: 24 genes | number of up-regulated genes among 284 known p53 target genes: 35 genes
